PubChem BioAssay AID1224826 – NIAID | 2016
This is an unselected part of about 17,000 reagents. About 1,110 of all reagents (6.6%) count as active. 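Active means lowered or raised reporter signal; replicate intensities are raw and not normalised per plate.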 Reagents against one gene are numbered here. Further read-outs or replicates are left out here. Reagent sequences are not shown.

Test: 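Knock-downs that raise or lower Tnf reporter signal after endotoxin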 (primary screen)
System: RAW264.7 G9 macrophages from mouse bearing reporters for p65 (GFP) and the Tnf promoter (mCherry)
Knock-down reagent: siRNA pool against mouse genes, 100 nM
Time to read-out: 16 h of LPS stimulation, after 2 days of siRNA transfection
Challenge: bacterial lipopolysaccharide (Salmonella minnesota R595), 10 ng/ml
Detection: 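Nuclear mCherry signal of the Tnf promoter reporter measured by imaging after background removal, scaled to each plate median and turned into robust z-scores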
Direction: Tnf reporter robust z-score: higher = stronger Tnf promoter reporter signal after LPS
Hit rule: 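a well counts as active at a score of -1.3 or below (Tlr4 knock-down control median) or above 3 (raised signal); controls and wells holding fewer than 50 cells are excluded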
Meaning of the calls: active = Tnf reporter clearly lowered or raised; inactive = no clear change in Tnf reporter

Zfp9 (zinc finger protein 9)
- Tnf reporter robust z-score: 0.34
- fewer than 50 cells in well: enough cells in well
- Call: inactive

Vps35 (VPS35 retromer complex component)
- Tnf reporter robust z-score: 4.27
- fewer than 50 cells in well: enough cells in well
- Call: active

Ppp2r2b (protein phosphatase 2, regulatory subunit B, beta)
- Tnf reporter robust z-score: 0.84
- fewer than 50 cells in well: enough cells in well
- Call: inactive

Csn3 (casein kappa)
- Tnf reporter robust z-score: 0.19
- fewer than 50 cells in well: enough cells in well
- Call: inactive

Cd55 (CD55 molecule, decay accelerating factor for complement)
- Tnf reporter robust z-score: 1.47
- fewer than 50 cells in well: enough cells in well
- Call: inactive

Nusap1 (nucleolar and spindle associated protein 1)
- Tnf reporter robust z-score: 0.11
- fewer than 50 cells in well: enough cells in well
- Call: inactive

Tnfrsf9 (tumor necrosis factor receptor superfamily, member 9)
- Tnf reporter robust z-score: -0.97
- fewer than 50 cells in well: enough cells in well
- Call: inactive

Tyr (tyrosinase)
- Tnf reporter robust z-score: 0.25
- fewer than 50 cells in well: enough cells in well
- Call: inactive

Fads1 (fatty acid desaturase 1)
- Tnf reporter robust z-score: -0.53
- fewer than 50 cells in well: enough cells in well
- Call: inactive

Bmp6 (bone morphogenetic protein 6)
- fewer than 50 cells in well: fewer than 50 cells per well; well left out of calls
- Call: inactive

Tubb6 (tubulin, beta 6 class V)
- Tnf reporter robust z-score: -0.36
- fewer than 50 cells in well: enough cells in well
- Call: inactive

Or9m1 (olfactory receptor family 9 subfamily M member 1)
- Tnf reporter robust z-score: 0.2
- fewer than 50 cells in well: enough cells in well
- Call: inactive

Napsa (napsin A aspartic peptidase)
- Tnf reporter robust z-score: -0.25
- fewer than 50 cells in well: enough cells in well
- Call: inactive

Mrgprb1 (MAS-related GPR, member B1)
- Tnf reporter robust z-score: 2.46
- fewer than 50 cells in well: enough cells in well
- Call: inactive

Adarb1 (adenosine deaminase, RNA-specific, B1)
- Tnf reporter robust z-score: -0.7
- fewer than 50 cells in well: enough cells in well
- Call: inactive

Trmt44 (tRNA methyltransferase 44)
- fewer than 50 cells in well: fewer than 50 cells per well; well left out of calls
- Call: inactive

Ecpas (Ecm29 proteasome adaptor and scaffold)
- Tnf reporter robust z-score: -1.14
- fewer than 50 cells in well: enough cells in well
- Call: inactive

Fem1c (fem 1 homolog c) #1
- Tnf reporter robust z-score: 1.05
- fewer than 50 cells in well: enough cells in well
- Call: inactive

Fem1c (fem 1 homolog c) #2
- Tnf reporter robust z-score: -1.27
- fewer than 50 cells in well: enough cells in well
- Call: inactive

Ovol2 (ovo like zinc finger 2)
- Tnf reporter robust z-score: 1.25
- fewer than 50 cells in well: enough cells in well
- Call: inactive

Emb (embigin)
- Tnf reporter robust z-score: 0.72
- fewer than 50 cells in well: enough cells in well
- Call: inactive

In a second layout: entries from further up
Target gene	pool no.	Tnf reporter robust z-score	fewer than 50 cells in well	Call
Bmp6 (bone morphogenetic protein 6)	1		fewer than 50 cells per well; well left out of calls	inactive
Tubb6 (tubulin, beta 6 class V)	1	-0.36	enough cells in well	inactive
Or9m1 (olfactory receptor family 9 subfamily M member 1)	1	0.2	enough cells in well	inactive
